Earlier results in US20190054093A1, “TREATMENT OF SARCOPENIA WITH ECDYSTEROIDS” (priority 2014, published 2019).

Conditions: adult and sexually immature animals; cited from earlier work

Row | Molecule | increase of γ-globulins in blood serum
1 | CC(C)(O)CC[C@@H](O)[C@](C)(O)[C@H]1CC[C@@]2(O)C3=CC(=O)[C@@H]4C[C@@H](O)[C@@H](O)C[C@]4(C)[C@H]3[C@H](O)C[C@]12C [turkesterone] | statistically significant
2 | turkesterone tetraacetate | statistically significant
